{"source": "PubChem BioAssay AID504786 (Drosophila RNAi Screening Center, 2011)", "aim": "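Knock-downs reducing HIF reporter induction by the iron chelator DFO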 (primary screen)", "cells": "Drosophila S2 cells with a stable HIF luciferase reporter", "reagent": "long dsRNA against Drosophila genes, about 0.2 µg dsRNA per well of a 384-well plate", "time to read-out": "three days of knock-down, then 20 h of DFO before reading", "conditions": "desferrioxamine (DFO) at 100 µM, an iron chelator that mimics hypoxia, for 20 h", "read-out": "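HIF reporter luminescence in cells given 100 µM DFO for 20 h, using the mouse ldh-a hypoxia-response element, scored as per-plate z-scores; higher means greater loss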", "reading the numbers": "z-score: higher = stronger loss of HIF reporter signal", "note": "The deposit covers about 21,000 reagents; this is a random part of those that have a named target and a result. 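Primary screen; positive scores mean lost reporter signal, so the sign may be inverted from the usual convention.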 Reagents against one gene are numbered here. Not all columns of the deposit are shown."}
The opening 5 records, ahead of the listing:
{"target": "Or67c", "dsRNA no.": 1, "z-score, replicate 1": -0.3}
{"target": "Ssdp", "dsRNA no.": 1, "z-score, replicate 1": -0.8}
{"target": "Glyp", "dsRNA no.": 1, "z-score, replicate 1": -0.5}
{"target": "Hex-C", "dsRNA no.": 1, "z-score, replicate 1": 1.6}
{"target": "CG12219", "dsRNA no.": 1, "z-score, replicate 1": -0.2}

Main list, from the first entry:
{"target": "Or67c", "dsRNA no.": 1, "z-score, replicate 1": -0.3}
{"target": "Ssdp", "dsRNA no.": 1, "z-score, replicate 1": -0.8}
{"target": "Glyp", "dsRNA no.": 1, "z-score, replicate 1": -0.5}
{"target": "Hex-C", "dsRNA no.": 1, "z-score, replicate 1": 1.6}
{"target": "CG12219", "dsRNA no.": 1, "z-score, replicate 1": -0.2}
{"target": "Serinc", "dsRNA no.": 1, "z-score, replicate 1": -0.3}
{"target": "Pglym78", "dsRNA no.": 1, "z-score, replicate 1": -0.4}
{"target": "CG13068", "dsRNA no.": 1, "z-score, replicate 1": -0.4}
{"target": "CG32642", "dsRNA no.": 1, "z-score, replicate 1": -0.3}
{"target": "CG5098", "dsRNA no.": 1, "z-score, replicate 1": -0.1}
{"target": "X11L", "dsRNA no.": 1, "z-score, replicate 1": -0.4}
{"target": "X11L", "dsRNA no.": 2, "z-score, replicate 1": -0.3}
{"target": "modSP", "dsRNA no.": 1, "z-score, replicate 1": -0.5}
{"target": "modSP", "dsRNA no.": 2, "z-score, replicate 1": -0.2}
{"target": "Drep2", "dsRNA no.": 1, "z-score, replicate 1": -0.3}
{"target": "CG17919", "dsRNA no.": 1, "z-score, replicate 1": -0.4}
{"target": "CG12795", "dsRNA no.": 1, "z-score, replicate 1": -0.2}
{"target": "CG8012", "dsRNA no.": 1, "z-score, replicate 1": -0.1}
{"target": "Spn42De", "dsRNA no.": 1, "z-score, replicate 1": 0.6}
{"target": "NimB4", "dsRNA no.": 1, "z-score, replicate 1": -0.4}
{"target": "CG9098", "dsRNA no.": 1, "z-score, replicate 1": -0.2}
{"target": "Osi10b", "dsRNA no.": 1, "z-score, replicate 1": 0.1}
{"target": "CG7330", "dsRNA no.": 1, "z-score, replicate 1": -0.3}
{"target": "CG7330", "dsRNA no.": 2, "z-score, replicate 1": -0.3}
{"target": "CG46301", "dsRNA no.": 1, "z-score, replicate 1": -0.3}
{"target": "Cpes", "dsRNA no.": 1, "z-score, replicate 1": 0.3}
{"target": "Cyp6g2", "dsRNA no.": 1, "z-score, replicate 1": -0.4}
{"target": "sut3", "dsRNA no.": 1, "z-score, replicate 1": 0}
{"target": "xit", "dsRNA no.": 1, "z-score, replicate 1": -0.3}
{"target": "Sc2", "dsRNA no.": 1, "z-score, replicate 1": -0.3}
{"target": "CG14566", "dsRNA no.": 1, "z-score, replicate 1": -0.4}
{"target": "jus", "dsRNA no.": 1, "z-score, replicate 1": -0.7}
{"target": "jus", "dsRNA no.": 2, "z-score, replicate 1": -0.2}
{"target": "Ude", "dsRNA no.": 1, "z-score, replicate 1": -0.3}
{"target": "ng4", "dsRNA no.": 1, "z-score, replicate 1": -0.4}
{"target": "Vdup1", "dsRNA no.": 1, "z-score, replicate 1": -0.2}
{"target": "CG12224", "dsRNA no.": 1, "z-score, replicate 1": -0.1}
{"target": "CG6983", "dsRNA no.": 1, "z-score, replicate 1": -0.4}
{"target": "CG9265", "dsRNA no.": 1, "z-score, replicate 1": -0.2}
{"target": "CG9265", "dsRNA no.": 2, "z-score, replicate 1": -0.2}
